Publication PMC5722644
Results are given in words; binding and its absence hold for the method and conditions named. In cells and extracts the contact can be indirect. These calls come from enrichment with a bait or labelling near it, and not all partners need be listed. Where a sequence is shown, tags or fusion partners need not be part of it.

T1: FLAG-tagged Drosophila spartin (Drosophila) (UniProt Q9VN45)
T1 sequence: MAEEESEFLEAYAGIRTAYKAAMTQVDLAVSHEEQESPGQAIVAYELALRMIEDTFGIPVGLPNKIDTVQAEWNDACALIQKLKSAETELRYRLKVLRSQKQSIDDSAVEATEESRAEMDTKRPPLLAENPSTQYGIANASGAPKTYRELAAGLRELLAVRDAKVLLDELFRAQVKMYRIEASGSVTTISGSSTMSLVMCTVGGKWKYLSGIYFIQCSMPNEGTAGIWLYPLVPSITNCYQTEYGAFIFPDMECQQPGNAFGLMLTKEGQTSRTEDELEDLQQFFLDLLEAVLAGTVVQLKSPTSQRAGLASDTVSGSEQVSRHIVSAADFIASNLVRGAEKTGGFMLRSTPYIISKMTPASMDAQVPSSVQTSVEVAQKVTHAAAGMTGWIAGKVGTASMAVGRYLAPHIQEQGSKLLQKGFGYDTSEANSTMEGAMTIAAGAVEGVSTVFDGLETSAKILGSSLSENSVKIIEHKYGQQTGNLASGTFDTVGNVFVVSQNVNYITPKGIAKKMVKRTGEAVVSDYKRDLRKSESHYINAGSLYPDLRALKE


Target: T1, FLAG-tagged Drosophila spartin (Drosophila)
Assay: affinity purification with mass spectrometry; whole-cell extracts of yeast expressing FLAG-tagged Drosophila spartin (vector control beside it) on anti-FLAG M2 agarose beads; eluates on Tricine-SDS-PAGE, lanes cut into slices, in-gel trypsin digest, LC-MS/MS

| Binder | binding |
| --- | --- |
| Rpn2 (protein, UniProt P32565 1-945) MSLTTAAPLLALLRENQDSVKTYALESINNVVDQLWSEISNELPDIEALYDDDTFSDREMAALIASKVYYNLGEYESAVKYALAAKDRFDIDEKSQFVETIVSKSIEMYVQEASKQYTKDEQFYTKDIIDPKLTSIFERMIEKCLKASELKLALGIALEGYRLDIIESALKSKLDQDSTSENVKIINYLLTLAITTVTNSKFRSSILRKSFDFLMNMPNCDYLTLNKVVVNLNDAGLALQLFKKLKEENDEGLSAQIAFDLVSSASQQLLEILVTELTAQGYDPALLNILSGLPTCDYYNTFLLNNKNIDIGLLNKSKSSLDGKFSLFHTAVSVANGFMHAGTTDNSFIKANLPWLGKAQNWAKFTATASLGVIHKGNLLEGKKVMAPYLPGSRASSRFIKGGSLYGLGLIYAGFGRDTTDYLKNIIVENSGTSGDEDVDVLLHGASLGIGLAAMGSANIEVYEALKEVLYNDSATSGEAAALGMGLCMLGTGKPEAIHDMFTYSQETQHGNITRGLAVGLALINYGRQELADDLITKMLASDESLLRYGGAFTIALAYAGTGNNSAVKRLLHVAVSDSNDDVRRAAVIALGFVLLRDYTTVPRIVQLLSKSHNAHVRCGTAFALGIACAGKGLQSAIDVLDPLTKDPVDFVRQAAMIALSMILIQQTEKLNPQVADINKNFLSVITNKHQEGLAKFGACVAQGIMNAGGRNVTIQLENADTGTLDTKSVVGLVMFSQFWYWFPLAHFLSLSFTPTTVIGIRGSDQAIPKFQMNCYAKEDAFSYPRMYEEASGKEVEKVATAVLSTTARAKARAKKTKKEKGPNEEEKKKEHEEKEKERETNKKGIKETKENDEEFYKNKYSSKPYKVDNMTRILPQQSRYISFIKDDRFVPVRKFKGNNGVVVLRDREPKEPVALIETVRQMKDVNAPLPTPFKVDDNVDFPSA | binds |
| Atg20 (protein, UniProt Q07528 1-640) MSDLNDVQENAKLNSETRNTGKAEPPHGTTEYVAEAEISKNGVGSPKKSPKKGKVGKGDNNKVETELVHTALLEKDNPFMEEGPTGFTKSALLEIPGMRSHNLKNPNEDYEDDSEGLLPLNQESNAETCRTSLSGSINSMNGETSASEEPSVSNRKKSARIHILEAKRVSEGQGRAYIAYVIQFENSTVQRRYSDFESLRSILIRLFPMTLIPPIPEKQSIKNYGKSITGSSSKYLLPSEGSGSVDLSLSVIHASVNNSDEKLIRHRIRMLTEFLNKLLTNEEITKTSIITDFLDPNNHNWHEFVNSSSTFSSLPKSILQCNPLDPTNTTRIHAMLPIPGSSSQLLLNKESNDKKMDKERSKSFTNIEQDYKQYENLLDNGIYKYNRRTTKTYHDLKSDYNEIGEVFAQFAHEQAQVGELAEQLSYLSNAFSGSSISLEKLVGRLYYNINEPLNESVHMATSARELIKYRKLKYLQNEMIKKSLNSKRAQLEKLEAQNNEYKDVDKIIDNEMSKSHTINLERPNNNTGSGGKSYGGKLFNGFNKLASMVKDSVKYQETDPHTASINLKKEIEQLSESLEVTENDLEVISKVIKNDQLPKFSKEREVDLSEILKHYSRYMRNYARQNLEIWKEVKRHQDFA | binds |
